The list shows a part of the results. Small differences around the control level are noise.
Experiments:
ppGalNAc-T3 sensor = experiment: T3 sensor activation Q score (MG/GFP ratio z-score vs DMSO controls) (SD units); higher = more sensor activation (inhibition of ppGalNAc-T3 glycosylation); settings: HEK293 sensor cells; 10 µM; 6 h
Description: (§1)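 Cells were treated with compound at 10 uM for 6 h, then MG/GFP ratio was read by flow cytometry (10,000 cells per well, duplicate wells). Q = (R - R_neg)/SD_neg relative to DMSO vehicle controls; the signal rises when the glycosyltransferase is inhibited.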

ppGalNAc-T2 sensor = experiment: T2 sensor activation Q score (MG/GFP ratio z-score vs DMSO controls) (SD units); higher = more sensor activation (inhibition of ppGalNAc-T2 glycosylation); settings: HEK293 sensor cells; 10 µM; 6 h
Description: as §1

## COc1cccc(Nc2nc(-c3ccc(F)cc3)cs2)c1
ppGalNAc-T3 sensor
  T3 sensor activation Q score: 0.51
ppGalNAc-T2 sensor
  T2 sensor activation Q score: 0.02

## CC(=O)Nc1ccc(S(=O)(=O)O)cc1
ppGalNAc-T3 sensor
  T3 sensor activation Q score: -0.185
ppGalNAc-T2 sensor
  T2 sensor activation Q score: -1.91

## CC1NC(C(=O)O)Cc2c1[nH]c1ccccc21 (centres undefined)
ppGalNAc-T3 sensor
  T3 sensor activation Q score: 1.05
ppGalNAc-T2 sensor
  T2 sensor activation Q score: 0.21

## CCOC(=O)N1CCN(Cc2ccccc2F)CC1
ppGalNAc-T3 sensor
  T3 sensor activation Q score: 0.085
ppGalNAc-T2 sensor
  T2 sensor activation Q score: 0.425

## CC(C)(C)OC(=O)N1CCCC1C(=O)O (centres undefined)
ppGalNAc-T3 sensor
  T3 sensor activation Q score: -0.39
ppGalNAc-T2 sensor
  T2 sensor activation Q score: -0.835

## Cc1ccc(NC(=O)CCC(=O)O)cc1I
ppGalNAc-T3 sensor
  T3 sensor activation Q score: -0.505
ppGalNAc-T2 sensor
  T2 sensor activation Q score: 1.15

## Cc1cccc(Cn2ncc(O)c(Cl)c2=O)c1
ppGalNAc-T3 sensor
  T3 sensor activation Q score: -0.3
ppGalNAc-T2 sensor
  T2 sensor activation Q score: 0.775

## O=[N+]([O-])c1ccccc1Oc1ccccc1
ppGalNAc-T3 sensor
  T3 sensor activation Q score: 0.415
ppGalNAc-T2 sensor
  T2 sensor activation Q score: -0.27

## COc1cc(CN2CCCN(C)CC2)c([N+](=O)[O-])cc1OC
ppGalNAc-T3 sensor
  T3 sensor activation Q score: 0.6
ppGalNAc-T2 sensor
  T2 sensor activation Q score: -0.005

## CC(=O)Nc1ccc(OCc2ccccc2)cc1
ppGalNAc-T3 sensor
  T3 sensor activation Q score: -0.41
ppGalNAc-T2 sensor
  T2 sensor activation Q score: 0.32

## O=S(=O)(Nc1nc2ccccc2s1)c1ccccc1
ppGalNAc-T3 sensor
  T3 sensor activation Q score: 1.06
ppGalNAc-T2 sensor
  T2 sensor activation Q score: 0.065

## C=CCS(=O)(=O)Nc1ccc(OC)cc1
ppGalNAc-T3 sensor
  T3 sensor activation Q score: 0.5
ppGalNAc-T2 sensor
  T2 sensor activation Q score: -0.71

## O=C(NCCc1ccccc1)c1ccco1
ppGalNAc-T3 sensor
  T3 sensor activation Q score: -1.22
ppGalNAc-T2 sensor
  T2 sensor activation Q score: -1.7

## Oc1cccnc1-c1ccccc1
ppGalNAc-T3 sensor
  T3 sensor activation Q score: -0.195
ppGalNAc-T2 sensor
  T2 sensor activation Q score: 0.62

## COc1ccc(CN2CCSCC2)cc1C
ppGalNAc-T3 sensor
  T3 sensor activation Q score: -0.28
ppGalNAc-T2 sensor
  T2 sensor activation Q score: 0.55

## CC(C)CSc1nnc2c(n1)[nH]c1ccccc12
ppGalNAc-T3 sensor
  T3 sensor activation Q score: 0.505
ppGalNAc-T2 sensor
  T2 sensor activation Q score: -0.59

## CCC1CCCCN1S(=O)(=O)c1ccc(C)c(C)c1 (centres undefined)
ppGalNAc-T3 sensor
  T3 sensor activation Q score: -0.905
ppGalNAc-T2 sensor
  T2 sensor activation Q score: -0.185

## O=C(Nc1ccccc1)NC1CCCCC1
ppGalNAc-T3 sensor
  T3 sensor activation Q score: 1.08
ppGalNAc-T2 sensor
  T2 sensor activation Q score: -0.355

## NS(=O)(=O)C#Cc1ccccc1
ppGalNAc-T3 sensor
  T3 sensor activation Q score: 0.35
ppGalNAc-T2 sensor
  T2 sensor activation Q score: 0.61

## NCCCCNc1ccccc1[N+](=O)[O-]
ppGalNAc-T3 sensor
  T3 sensor activation Q score: 0.11
ppGalNAc-T2 sensor
  T2 sensor activation Q score: -0.89

## CCOc1ccc(N2C(=O)CC(SCC(=O)Nc3ccc(F)cc3)C2=O)cc1 (centres undefined)
ppGalNAc-T3 sensor
  T3 sensor activation Q score: -0.21
ppGalNAc-T2 sensor
  T2 sensor activation Q score: -0.865

## Cc1cc(C)n(C(=O)c2ccc(F)cc2)n1
ppGalNAc-T3 sensor
  T3 sensor activation Q score: 0.635
ppGalNAc-T2 sensor
  T2 sensor activation Q score: 0.5

## CCN(CC)CC(=O)Nc1ccc2c(c1)Nc1ccccc1CC2
ppGalNAc-T3 sensor
  T3 sensor activation Q score: 0.38
ppGalNAc-T2 sensor
  T2 sensor activation Q score: -1.1

## CCN(CC)CC1CCc2c(c3ccccc3n2C)C1=O (centres undefined)
ppGalNAc-T3 sensor
  T3 sensor activation Q score: 1.55
ppGalNAc-T2 sensor
  T2 sensor activation Q score: 0.515

## CC(C)(C)C(=O)NCCCc1ccccc1
ppGalNAc-T3 sensor
  T3 sensor activation Q score: 0.715
ppGalNAc-T2 sensor
  T2 sensor activation Q score: -0.115

## Cc1ccc(S(=O)(=O)N2CCN(CCCc3ccccc3)CC2)cc1
ppGalNAc-T3 sensor
  T3 sensor activation Q score: -1.15
ppGalNAc-T2 sensor
  T2 sensor activation Q score: -0.815

## CC(=O)c1cccc(NC(=O)c2ccccc2-c2ccccc2C(=O)O)c1
ppGalNAc-T3 sensor
  T3 sensor activation Q score: 0.09
ppGalNAc-T2 sensor
  T2 sensor activation Q score: -1.03

## O=C(NN1CCOCC1)c1cccs1
ppGalNAc-T3 sensor
  T3 sensor activation Q score: 0.29
ppGalNAc-T2 sensor
  T2 sensor activation Q score: 0.51

## Cc1ccc(C)c(NCC(=O)Nc2c(C)cccc2C)c1
ppGalNAc-T3 sensor
  T3 sensor activation Q score: -0.135
ppGalNAc-T2 sensor
  T2 sensor activation Q score: -1.06

## CCN(CCN(C)C)Cc1cccc(C)c1
ppGalNAc-T3 sensor
  T3 sensor activation Q score: 1.01
ppGalNAc-T2 sensor
  T2 sensor activation Q score: -0.59

## O=S(=O)(Cc1ccccc1)N1CCN(c2cccc(Cl)c2)CC1
ppGalNAc-T3 sensor
  T3 sensor activation Q score: 0.63
ppGalNAc-T2 sensor
  T2 sensor activation Q score: -0.33

## COc1ccc(OC)c(S(=O)(=O)c2ccc(C)c(C)c2)c1
ppGalNAc-T3 sensor
  T3 sensor activation Q score: -0.075
ppGalNAc-T2 sensor
  T2 sensor activation Q score: 0.17

## CC(=O)Nc1ccc(S(=O)(=O)NC2CCCCC2)cc1
ppGalNAc-T3 sensor
  T3 sensor activation Q score: -0.94
ppGalNAc-T2 sensor
  T2 sensor activation Q score: -1.55

## CC1(C)CC(=O)C2=C(C1)Nc1ccccc1NC2c1ccc(Cl)cc1 (centres undefined)
ppGalNAc-T3 sensor
  T3 sensor activation Q score: -0.385
ppGalNAc-T2 sensor
  T2 sensor activation Q score: -0.8

## CC(=O)C1=C(O)C(=O)N(C)C1c1ccccc1 (centres undefined)
ppGalNAc-T3 sensor
  T3 sensor activation Q score: 0.76
ppGalNAc-T2 sensor
  T2 sensor activation Q score: 0.22

## CC1=CC(C)(C)N(C(=O)Cc2ccccc2)c2ccccc21
ppGalNAc-T3 sensor
  T3 sensor activation Q score: -0.42
ppGalNAc-T2 sensor
  T2 sensor activation Q score: -1.21

## O=C(O)C1CCCCC1C(=O)Nc1cccc(F)c1 (centres undefined)
ppGalNAc-T3 sensor
  T3 sensor activation Q score: -0.1
ppGalNAc-T2 sensor
  T2 sensor activation Q score: 0.875

## CC1(C)NC(C(=O)O)Cc2c1[nH]c1ccccc21 (centres undefined)
ppGalNAc-T3 sensor
  T3 sensor activation Q score: 0.735
ppGalNAc-T2 sensor
  T2 sensor activation Q score: -1.12

## O=[N+]([O-])c1cccc(CN2CCN(Cc3ccc4c(c3)OCO4)CC2)c1
ppGalNAc-T3 sensor
  T3 sensor activation Q score: 0.63
ppGalNAc-T2 sensor
  T2 sensor activation Q score: -0.285

## CC(C)(C)S(=O)(=O)c1ccc(-c2ccccc2)cc1
ppGalNAc-T3 sensor
  T3 sensor activation Q score: 1.55
ppGalNAc-T2 sensor
  T2 sensor activation Q score: -0.745

## CN(C)C=NS(=O)(=O)c1ccccc1
ppGalNAc-T3 sensor
  T3 sensor activation Q score: 0.615
ppGalNAc-T2 sensor
  T2 sensor activation Q score: 0.445

## COc1cc(CN2CCN(Cc3ccccc3)CC2)cc(OC)c1O
ppGalNAc-T3 sensor
  T3 sensor activation Q score: 0.295
ppGalNAc-T2 sensor
  T2 sensor activation Q score: 0.115

## O=C(c1sc2cc([N+](=O)[O-])ccc2c1Cl)N1CCOCC1
ppGalNAc-T3 sensor
  T3 sensor activation Q score: 0.4
ppGalNAc-T2 sensor
  T2 sensor activation Q score: -0.185

## Cc1cc(Br)ccc1NC(=O)CCc1ccccc1
ppGalNAc-T3 sensor
  T3 sensor activation Q score: -1.03
ppGalNAc-T2 sensor
  T2 sensor activation Q score: -1.18

## COc1ccc(S(=O)(=O)Nc2ccccc2Cl)cc1
ppGalNAc-T3 sensor
  T3 sensor activation Q score: -0.305
ppGalNAc-T2 sensor
  T2 sensor activation Q score: -0.61

## CCOc1ccc2nc(NC(=O)c3ccc([N+](=O)[O-])c(C)c3)sc2c1
ppGalNAc-T3 sensor
  T3 sensor activation Q score: -0.75
ppGalNAc-T2 sensor
  T2 sensor activation Q score: -1.01

## O=C(O)/C=C1\NC(=O)c2ccccc21
ppGalNAc-T3 sensor
  T3 sensor activation Q score: 2.35
ppGalNAc-T2 sensor
  T2 sensor activation Q score: -0.48

## Nc1nc(-c2ccco2)nc(-c2ccco2)n1
ppGalNAc-T3 sensor
  T3 sensor activation Q score: 0.55
ppGalNAc-T2 sensor
  T2 sensor activation Q score: -0.35

## O=C(Nc1ccc(N2CCOCC2)cc1)c1ccccc1
ppGalNAc-T3 sensor
  T3 sensor activation Q score: 0.18
ppGalNAc-T2 sensor
  T2 sensor activation Q score: 0.59

## Fc1ccccc1CN1CCN(c2ncccn2)CC1
ppGalNAc-T3 sensor
  T3 sensor activation Q score: 0.725
ppGalNAc-T2 sensor
  T2 sensor activation Q score: -0.71

## COc1ccccc1C1CC(=O)N(C)C2=C1C(=O)CC(C)(C)C2 (centres undefined)
ppGalNAc-T3 sensor
  T3 sensor activation Q score: -0.195
ppGalNAc-T2 sensor
  T2 sensor activation Q score: -0.275

## Cc1ccc(C(=O)O)cc1S(=O)(=O)N1CCOCC1
ppGalNAc-T3 sensor
  T3 sensor activation Q score: 0.205
ppGalNAc-T2 sensor
  T2 sensor activation Q score: 0.26
